Experimental data as given in patent US5807985A (priority 1997, dated 1998).

experiment: general procedure: Fmoc solid-phase peptide synthesis; details: whole synthesis, HPLC

Going from “PEPTIDE1{[GAB].[D-Mrp].[D-Mrp].F.K.[am]}$$$$V2.0” to “PEPTIDE1{[GAB].[D-Mrp].[D-Mrp].[D-Mrp].K.[am]}$$$$V2.0”, the “purity (crude or final not stated)” value rises from 98.0% to 99.0%.

Compared with “PEPTIDE1{[GAB].[D-Mrp].[D-Mrp].[Mrp].K.[am]}$$$$V2.0”, “PEPTIDE1{[GAB].[D-Mrp].[D-bNal].F.K.[am]}$$$$V2.0” is higher in “purity (crude or final not stated)” value: 98.0% for the first, 99.0% for the second.

Some peptides are written in HELM: one residue between dots, names in brackets for other building blocks, links after the first $.
